Test results from article PMC10849766.
No constants are given. Whether binding was seen depends on the method and setting. Binding seen in cells or lysates may run through a third protein. A result given as binding can be weak or reduced; the word gives no strength.

Target: T1, Vascular endothelial (VE)-cadherin (human (endogenous in HBMECs)) (UniProt P33151)
T1 sequence: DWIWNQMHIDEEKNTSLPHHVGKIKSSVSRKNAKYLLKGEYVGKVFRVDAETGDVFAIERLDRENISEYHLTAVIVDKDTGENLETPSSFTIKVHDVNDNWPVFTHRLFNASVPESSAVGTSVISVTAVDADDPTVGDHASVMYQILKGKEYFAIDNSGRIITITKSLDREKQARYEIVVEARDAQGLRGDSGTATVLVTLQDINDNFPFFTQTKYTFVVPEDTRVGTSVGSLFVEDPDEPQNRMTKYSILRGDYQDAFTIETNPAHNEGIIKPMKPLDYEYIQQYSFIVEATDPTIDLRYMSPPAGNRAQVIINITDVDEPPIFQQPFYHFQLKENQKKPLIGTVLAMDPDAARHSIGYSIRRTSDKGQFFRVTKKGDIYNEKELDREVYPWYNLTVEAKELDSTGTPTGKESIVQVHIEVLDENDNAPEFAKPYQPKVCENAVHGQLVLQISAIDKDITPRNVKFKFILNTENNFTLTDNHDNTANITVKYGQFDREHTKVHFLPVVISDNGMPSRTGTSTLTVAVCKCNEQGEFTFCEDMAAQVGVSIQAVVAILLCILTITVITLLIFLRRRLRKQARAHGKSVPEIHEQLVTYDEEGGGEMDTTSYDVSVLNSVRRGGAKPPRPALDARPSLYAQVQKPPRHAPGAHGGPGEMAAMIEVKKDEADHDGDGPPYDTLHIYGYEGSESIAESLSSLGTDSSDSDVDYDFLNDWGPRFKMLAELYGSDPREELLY
Test: co-IP; IP with VE-cadherin antibody from HBMEC lysates, Western blot for α-catenin and β-catenin; cells under hypoxia plus IL-1β for 24 hours with rhTIMP2, rhAlaTIMP2 or PBS; also cells transfected with WT, Y419D or Y419A Src

binding: binds
Substance: α-catenin (human (endogenous in HBMECs))
